From PubChem BioAssay AID720522 (National Center for Advancing Translational Sciences (NCATS), 2013)
About 60 (4%) of roughly 1,400 compounds were called active. Inconclusive means that the source gave no clear call. Such entries were picked first, then a sample of the others. The call rests on the fitted dose curve; in most records, active means well fitted inhibition curve with a large enough effect; inconclusive means small, poorly fitted or top-dose-only effect; inactive means flat fitted curve, though single readings scatter. Where the call is inconclusive, the potency comes from a doubtful curve fit.

By UniProt entry, the sequences of proteins in these tests, tags left out.
UniProt P08659, whole entry, looked up: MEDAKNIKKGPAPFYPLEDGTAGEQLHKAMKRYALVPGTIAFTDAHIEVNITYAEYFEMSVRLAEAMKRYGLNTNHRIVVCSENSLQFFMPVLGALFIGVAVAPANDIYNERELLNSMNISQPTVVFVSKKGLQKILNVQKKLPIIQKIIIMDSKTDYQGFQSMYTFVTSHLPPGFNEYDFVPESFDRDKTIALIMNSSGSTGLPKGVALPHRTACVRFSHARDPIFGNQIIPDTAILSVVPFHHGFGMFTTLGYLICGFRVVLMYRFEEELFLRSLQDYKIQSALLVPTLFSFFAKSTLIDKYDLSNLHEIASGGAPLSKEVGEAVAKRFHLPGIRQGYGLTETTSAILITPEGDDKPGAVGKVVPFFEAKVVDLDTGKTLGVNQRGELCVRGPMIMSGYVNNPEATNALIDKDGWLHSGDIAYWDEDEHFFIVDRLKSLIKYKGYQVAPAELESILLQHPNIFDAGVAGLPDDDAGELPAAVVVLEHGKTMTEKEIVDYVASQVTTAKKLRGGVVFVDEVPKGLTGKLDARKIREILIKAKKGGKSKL

molecular target: Luciferin 4-monooxygenase (Photinus pyralis) (UniProt P08659); experiment: Nrf2 qHTS screen for inhibitors: Purified Fluc Biochemical Counterscreen for Hit Validation; settings: purified firefly luciferase, luminescence inhibition; series mostly up to 57.5 µM; further: nearly all actives have a fitted effect of over 65% in size
In short: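 Compounds in DMSO (0.56% final) were added to substrate solution of 0.01 mM ATP and 0.01 mM D-luciferin in Tris-acetate/Mg-acetate with Tween and BSA. Enzyme reagent (0.04 uM luciferase) was then added, and luminescence read after 10 min at room temperature.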
Potency means the concentration at half of the fitted maximal effect.

Structure (SMILES) | Potency
O=C(c1cc(COc2ccc3ncccc3c2)on1)N1CCCC1 | inconclusive: 19 µM [inhibitor, single point]
Cc1cc(C(=O)CN2C(=O)c3ccccc3S2(=O)=O)c(C)n1CC1CCCO1 (configuration not stated) | active: 1.35 µM
COc1ccccc1Nc1nc(-c2sc(NC(=O)C(C)(C)C)nc2C)cs1 | inconclusive: 13.5 µM [inhibitor, partial curve]
Cn1cccc1C(=O)NC(=O)COC(=O)CNC(=O)c1ccc(Cl)cc1Cl | inconclusive: 23.9 µM [inhibitor, single point]
CC(=NNc1nc2ccccc2o1)c1ncccn1 | active: 19 µM
O=C(O)CCSc1nnc(-c2ccc(Cl)cc2Cl)o1 | active: 3.01 µM
Cn1c(-c2ccc(S(=O)(=O)N3CCCC3)cc2)csc1=Nc1ccc(Cl)c(Cl)c1 | inconclusive: 13.5 µM [inhibitor, partial curve]
O=C(O)CCSc1ncnc2sc(-c3ccccc3)cc12 | active: 9.53 µM
O=C(Nc1nc(-c2ccccc2)cs1)c1ccc(N2CCOCC2)c([N+](=O)[O-])c1 | inconclusive: 9.53 µM [inhibitor, partial curve]
CCCC(=O)Nc1nc(-c2ccc3c(c2)CCN3S(C)(=O)=O)cs1 | inconclusive: 26.9 µM [inhibitor, single point]
COc1cc(OC)cc(-c2cc3nc(C)c(CCC(=O)O)c(C)n3n2)c1 | active: 10.7 µM
Cc1cnc2ccc3ccccc3c2c1C | inconclusive: 16.9 µM [inhibitor, partial curve]
Cc1ccc(CCNc2ncnc3onc(C)c23)cc1 | inconclusive: 15.1 µM [inhibitor, partial curve]
O=C(CN1C(=O)c2ccccc2S1(=O)=O)N1CCc2ccccc21 | active: 4.26 µM
O=C(N/N=C/c1ccc([N+](=O)[O-])s1)c1ccccc1Br | inconclusive: 16.9 µM [inhibitor, partial curve]
CC(C)COc1ccccc1C1CC(=O)Nc2cc3c(cc21)OCO3 (configuration not stated) | inactive
CCc1ccc(-c2nc(CSCC(=O)N3CCN(c4ccc(F)cc4)CC3)c(C)o2)cc1 | inactive
CSc1ccc(CCNc2ncnc3onc(-c4ccc(Cl)cc4)c23)cc1 | inactive
CC[N+](CC)(CC)c1ccc(/C=C/c2ccc3ccccc3n2)cc1 | active: 23.9 µM
Cc1cc(N(C)C)cc(C)c1/C=C/c1ccnc2ccccc12 | inconclusive: 13.5 µM [inhibitor, partial curve]
COc1ccc(C(=O)NC(=S)NNC(=O)c2cnccn2)cc1 | inconclusive: 15.1 µM [inhibitor, partial curve]
CC(C)(C)OC(=O)NCCCC[C@H](NC(=O)c1nc[nH]c1C(=O)NC(c1ccccc1)c1ccccc1)C(=O)OC(C)(C)C | inactive
Cc1cc(Cl)c(S(=O)(=O)N2CCCC2)cc1OCC(=O)NC1CCCCC1 | inactive
O=C(/C=C/c1ccccc1)NC(NC(=S)Nc1ccc(Cl)cc1)C(Cl)(Cl)Cl (configuration not stated) | inconclusive: 21.3 µM [inhibitor, single point]

Random excerpt: 2 entries already listed
Structure (SMILES) | Potency
COc1cc(OC)cc(-c2cc3nc(C)c(CCC(=O)O)c(C)n3n2)c1 | active: 10.7 µM
O=C(CN1C(=O)c2ccccc2S1(=O)=O)N1CCc2ccccc21 | active: 4.26 µM

More entries.

Structure (SMILES) | Potency
O=C1C=CCC(/C=C/c2ccccc2)O1 (configuration not stated) | inactive
COc1ccc(C)cc1NC(=O)CSc1ccc(-c2ccccn2)nn1 | inconclusive: 16.9 µM [inhibitor, partial curve]
Cc1ccc(/C=C2/SC(=S)N(CCCC(=O)Nc3ccc(O)cc3)C2=O)cc1 | inconclusive: 6.75 µM [inhibitor, partial curve]
COc1ccc(-c2nc(CSCC(=O)N3CCN(c4ccccc4F)CC3)c(C)o2)cc1 | inactive
FC(F)(F)c1cccc(Nc2nc3nonc3nc2Nc2ccc(Cl)cc2)c1 | inconclusive: 23.9 µM [inhibitor, single point]
CCN(CC)c1ccc(Nc2nc(N3CCOCC3)c3ccccc3n2)cc1 | inconclusive: 13.5 µM [inhibitor, partial curve]
CCC[C@H]1NC(=O)[C@H](C)N(C)C(=O)C(C)(C)C(=O)C(C)NC(=O)[C@H](Cc2ccc(OC)cc2)N(C)C(=O)[C@H](C(C)C)N(C)C(=O)CNC(=O)[C@H](CC(C)C)N(C)C(=O)CNC(=O)[C@H]([C@@H](C)CC)OC(=O)[C@H]1C (some centres not stated) | inactive
Cc1cc2cc(CN(Cc3ccco3)S(=O)(=O)c3c(C)ccc4nsnc34)c(=O)[nH]c2cc1C | inconclusive: 37.9 µM [inhibitor, single point]
c1ccc2c(c1)OCC(CNc1ncnc3sccc13)O2 (configuration not stated) | inactive
CN1/C(=C/c2cc[n+](C)c3ccccc23)C=Cc2ccccc21 | inconclusive: 16.9 µM [inhibitor, partial curve]
O=C(Nc1nc(-c2ccc3ccccc3c2)cs1)C1CCN(S(=O)(=O)c2cccs2)CC1 | inactive
O=C(/C=C/c1ccc(Cl)cc1)NC(=S)Nc1ccc(NC(=O)c2ccco2)cc1 | inactive
Cn1nc(C(C)(C)C)cc1C(=O)NCc1cc(F)cc2c1OCOC2 | inactive
COC(=O)c1c(C)oc2ccc(N(C(=O)c3ccncc3)S(=O)(=O)c3ccc(OC)cc3)cc12 | inactive
O=C(NNc1ccnc2cc(Cl)ccc12)C1CCCCC1 | inconclusive: 21.3 µM [inhibitor, partial curve]
c1ccc(C(=NNc2nc3ccccc3s2)c2ccccn2)cc1 | inconclusive: 19 µM [inhibitor, single point]
Cc1c(/C=C/c2ccnc3ccccc23)ccc(N(C)C)c1C | inactive
Cc1cccc(C(=O)Nc2ccc3oc(-c4ccncc4)nc3c2)c1 | inactive
CC1CCc2nc(-c3cc4ccc(O)cc4oc3=O)sc2C1 (configuration not stated) | active: 0.0379 µM
CC(=O)Nc1ccccc1OCC(=O)c1cc(C)n(Cc2cccs2)c1C | active: 15.1 µM
CCc1nc(N)nc(N)c1-c1ccc(N(C)Cc2ccccc2)c([N+](=O)[O-])c1 | inactive
CCOc1cc(/C=C(\C#N)C(=O)Nc2ccccc2C(=O)O)ccc1OC(=O)c1ccc(C)cc1 | inconclusive: 26.9 µM [inhibitor, single point]
Cc1cc(C2=NNC(=NC3CC3)SC2)c(C)n1-c1ccccc1F | inactive
Cc1cc(O)c2c(c1O)C(=O)[C@]13C(=C2O)C(=O)[C@@H]2[C@@H](O)[C@H]1[C@@H]1[C@H](O)[C@H]3C(=O)C3=C(O)c4c(O)cc(C)c(O)c4C(=O)[C@]312 | inconclusive: 26.9 µM [inhibitor, single point]

Structures listed so far containing an NH in an aromatic ring (2):
Structure (SMILES) | Potency
CC(C)(C)OC(=O)NCCCC[C@H](NC(=O)c1nc[nH]c1C(=O)NC(c1ccccc1)c1ccccc1)C(=O)OC(C)(C)C | inactive
Cc1cc2cc(CN(Cc3ccco3)S(=O)(=O)c3c(C)ccc4nsnc34)c(=O)[nH]c2cc1C | inconclusive: 37.9 µM [inhibitor, single point]

(listing goes on)

Structure (SMILES) | Potency
CCCCCCCCCCCCCCCC[n+]1ccc(/C=C/c2c[nH]c3ccccc23)cc1 | inconclusive: 30.1 µM [inhibitor, single point]
Cn1cc(/C=C/c2cc[n+](C)cc2)c2cc(F)ccc21 | inactive
COc1cc(OC)cc(-c2cc3nc(C)c(CCC(=O)Nc4ccc(F)c(Cl)c4)c(C)n3n2)c1 | inconclusive: 23.9 µM [inhibitor, single point]
CCOc1ccc(C(=O)Nc2ccc3nc(SCC(=O)N(C)c4ccccc4)sc3c2)cc1 | inconclusive: 3.79 µM [inhibitor, full curve]
CCCn1c(NC(=O)c2cccc(S(=O)(=O)N3CCCC3)c2)nc2ccccc21 | inactive
C=CCOc1ccc(CN(C)C(=O)c2ccc(CNS(=O)(=O)c3ccc(C)c(C)c3)cc2)cc1 | inactive
Nc1cc(S(=O)(=O)Nc2ccccc2Cl)ccc1N1CCCCC1 | active: 9.53 µM
COc1cc(CNCc2ccc(OC)cc2OC)cc(OC)c1 | inactive
C[C@]12C=CC(=O)C=C1CC[C@H]1[C@@H]3C[C@@H](O)[C@](O)(C(=O)CO)[C@@]3(C)C[C@H](O)[C@@]12F | inactive
Cc1ccc(CCNc2ncnc(Cl)c2N)cc1 | inconclusive: 23.9 µM [inhibitor, partial curve]
Cc1cc(/C=C\c2ccc3cc(N(C)C)ccc3[n+]2C)c(C)n1-c1ccccc1 | inconclusive: 26.9 µM [inhibitor, partial curve]
O=[N+]([O-])c1ccc2ncnc(N3CCN(Cc4ccc5c(c4)OCO5)CC3)c2c1 | inactive
Cn1nccc1C(=O)NC1CCCc2c1cnn2-c1ccc(C(C)(C)C)cc1 (configuration not stated) | inconclusive: 13.5 µM [inhibitor, partial curve]
COc1ccccc1-[n+]1c(C)cc(/C=C2\Sc3ccccc3N2C)cc1C | active: 0.536 µM
CN(C)c1ccc(/C=C/c2ccc3c4ccccc4ccc3[n+]2-c2ccccc2)cc1 | inconclusive: 23.9 µM [inhibitor, partial curve]
c1cc2[nH]snc2c2nc(C3CC3)nc12 | inconclusive: 16.9 µM [inhibitor, partial curve]
N=c1ccn(Cc2ccc(F)cc2)cc1 | inconclusive: 19 µM [inhibitor, single point]
COc1cc(C(=O)N/N=C/c2ccc(OC(=O)c3ccccc3Cl)c(OC)c2)ccc1O | active: 0.536 µM
CCCC(=O)Nc1nc(C)c(-c2csc(Nc3ccc(Cl)cc3)n2)s1 | active: 16.9 µM
CC(C)(C)n1ncc2c(=O)n(Cc3ccc(C(=O)c4ccccc4)cc3)cnc21 | inconclusive: 19 µM [inhibitor, partial curve]
Cc1cc(-n2c(C)cc(C(=O)CSc3ncnc4ccccc34)c2C)no1 | inconclusive: 15.1 µM [inhibitor, partial curve]
COc1ccc(-c2nc(CSCC(=O)N3CCN(c4cc(Cl)ccc4C)CC3)c(C)o2)cc1 | inconclusive: 13.5 µM [inhibitor, partial curve]
CNc1ccc(C=C2c3ccccc3-c3ccccc32)cc1 | inconclusive: 21.3 µM [inhibitor, partial curve]
COc1ccc(C)cc1NC(=O)CSc1ccc(-c2sc(C)nc2C)nn1 | inconclusive: 23.9 µM [inhibitor, partial curve]
